Reference: patent publication US20230374132A1
Results are given in words; binding and its absence hold for the method and conditions named. Some binding calls cover weakened binding; strength is not graded here.

The chains behind the UniProt entries cited, without tags or fusion partners. Where a name states a change or a piece, a line headed by the entry shows the natural chain unless it says otherwise.
UniProt P07766: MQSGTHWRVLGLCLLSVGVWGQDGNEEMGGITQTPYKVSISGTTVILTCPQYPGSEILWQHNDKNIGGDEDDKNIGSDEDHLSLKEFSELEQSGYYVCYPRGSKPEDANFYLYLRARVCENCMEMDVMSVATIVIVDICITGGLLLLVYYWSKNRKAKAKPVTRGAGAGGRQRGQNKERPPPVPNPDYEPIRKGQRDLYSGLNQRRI
UniProt P04234: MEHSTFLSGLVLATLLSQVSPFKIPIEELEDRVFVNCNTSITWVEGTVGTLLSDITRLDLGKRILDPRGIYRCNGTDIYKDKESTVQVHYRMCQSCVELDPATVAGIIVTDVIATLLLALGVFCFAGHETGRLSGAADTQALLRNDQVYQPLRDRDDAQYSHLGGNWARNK
UniProt P09693: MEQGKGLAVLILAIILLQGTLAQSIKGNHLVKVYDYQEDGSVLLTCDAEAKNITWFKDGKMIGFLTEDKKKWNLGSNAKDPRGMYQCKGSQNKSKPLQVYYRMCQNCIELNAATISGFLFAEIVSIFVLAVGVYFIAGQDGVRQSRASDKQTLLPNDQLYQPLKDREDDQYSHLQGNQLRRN

B1: hzsp34.106 (antibody, human IgG1, lambda, L234A L235A, V domains shown)
VH: EVQLVESGGGLVQPGGSLKLSCAASGFTFNTYAMNWVRQASGKGLEWVGRIRSKYNNYATYYADSVKDRFTISRDDSKSTLYLQMNSLKTEDTAVYYCARHGNFGQSYVSWFAYWGQGTTVTVSS
VL: QAVVTQEPSLTVSPGGTVTLTCRSSTGAVTTSGYANWVQQKPGQAPRGLIGGTNKRAPGVPARFSGSLLGDKAALTLLGAQPEDEAEYYCALWYSNLWVFGQGTKLTVLG
B2: hzsp34.112 (antibody, human IgG1, lambda, L234A L235A, V domains shown)
VH: EVQLVESGGGLVQPGGSLKLSCAASGFTFNTYAMNWVRQASGKGLEWVGRIRSKYNNYATYYADSVKDRFTISRDDSKSTLYLQMNSLKTEDTAVYYCARHGNFGQSYVSWFAYWGQGTTVTVSS
VL: QAVVTQEPSLTVSPGGTVTLTCRSSTGAVTTRGYANWVQQKPGQAPRGLIGGTNKRAPGVPARFSGSLLGDKAALTLLGAQPEDEAEYYCALWYSNLWVFGQGTKLTVLG
B3: hzsp34.114 (antibody, human IgG1, lambda, L234A L235A, V domains shown)
VH: EVQLVESGGGLVQPGGSLKLSCAASGFTFNTYAMNWVRQASGKGLEWVGRIRSKYNNYATYYADSVKDRFTISRDDSKSTLYLQMNSLKTEDTAVYYCARHGNFGQSYVSWFAYWGQGTTVTVSS
VL: QAVVTQEPSLTVSPGGTVTLTCRSSTGAVTTSNYANWVQQKPGQAPRGLIGGTNKRAPGVPARFSGSLLGDKAALTLLGAQPEDEAEYYCALWYRGLWVFGQGTKLTVLG
B4: hzsp34.108 (antibody, human IgG1, lambda, L234A L235A, V domains shown)
VH: EVQLVESGGGLVQPGGSLKLSCAASGFTFNTYAMNWVRQASGKGLEWVGRIRSKYNNYATYYADSVKDRFTISRDDSKSTLYLQMNSLKTEDTAVYYCARHGNFGQSYVSWFAYWGQGTTVTVSS
VL: QAVVTQEPSLTVSPGGTVTLTCRSSTGAVTTSNYANWVQQKPGQAPRGLIGGTNKRAPGVPARFSGSLLGDKAALTLLGAQPEDEAEYYCALWASNLWVFGQGTKLTVLG
B5: hzsp34.111 (antibody, human IgG1, lambda, L234A L235A, V domains shown)
VH: EVQLVESGGGLVQPGGSLKLSCAASGFTFNTYAMNWVRQASGKGLEWVGRIRSKYNNYATYYADSVKDRFTISRDDSKSTLYLQMNSLKTEDTAVYYCARHGNFGQSYVSWFAYWGQGTTVTVSS
VL: QAVVTQEPSLTVSPGGTVTLTCRSSTGAVGGSNYANWVQQKPGQAPRGLIGGTNKRAPGVPARFSGSLLGDKAALTLLGAQPEDEAEYYCALWYSNLWVFGQGTKLTVLG
B6: hzsp34.113 (antibody, human IgG1, lambda, L234A L235A, V domains shown)
VH: EVQLVESGGGLVQPGGSLKLSCAASGFTFNTYAMNWVRQASGKGLEWVGRIRSKYNNYATYYADSVKDRFTISRDDSKSTLYLQMNSLKTEDTAVYYCARHGNFGQSYVSWFAYWGQGTTVTVSS
VL: QAVVTQEPSLTVSPGGTVTLTCRSSTGAVTTSNYANWVQQKPGQAPRGLIGGTNKRAPGVPARFSGSLLGDKAALTLLGAQPEDEAEYYCALAASNLWVFGQGTKLTVLG
B7: hzsp34.109 (antibody, human IgG1, lambda, L234A L235A, V domains shown)
VH: EVQLVESGGGLVQPGGSLKLSCAASGFTFNTYAMNWVRQASGKGLEWVGRIRSKYNNYATYYADSVKDRFTISRDDSKSTLYLQMNSLKTEDTAVYYCARHGNFGQSYVSWFAYWGQGTTVTVSS
VL: QAVVTQEPSLTVSPGGTVTLTCRSSTGAVTTSNYANWVQQKPGQAPRGLIGGTNKRAPGVPARFSGSLLGDKAALTLLGAQPEDEAEYYCALWYRNLWVFGQGTKLTVLG
B8: hzsp34.110 (antibody, human IgG1, lambda, L234A L235A, V domains shown)
VH: EVQLVESGGGLVQPGGSLKLSCAASGFTFNTYAMNWVRQASGKGLEWVGRIRSKYNNYATYYADSVKDRFTISRDDSKSTLYLQMNSLKTEDTAVYYCARHGNFGQSYVSWFAYWGQGTTVTVSS
VL: QAVVTQEPSLTVSPGGTVTLTCRSSTGAVTTSNYANWVQQKPGQAPRGLIGGTNKRAPGVPARFSGSLLGDKAALTLLGAQPEDEAEYYCALWYSGLWVFGQGTKLTVLG

The binders below were run against human CD3 complex on Jurkat cells (human) (UniProt P07766+P04234+P09693) (assay: flow cytometry on Jurkat cells (human CD3 complex), method of Example 3.2).

binding, binds:
B1
B2
B3
B4
B5
B6
B7
B8
